From patent publication US20080152587A1
No constants are given. Whether binding was seen depends on the method and setting. Some binding calls cover weakened binding; strength is not graded here.

By UniProt entry, the sequences of proteins in these tests, tags left out. Where a name states a change or a piece, a line headed by the entry shows the natural chain unless it says otherwise. Residues count along the entry.
UniProt Q9GK78, residues 23-305: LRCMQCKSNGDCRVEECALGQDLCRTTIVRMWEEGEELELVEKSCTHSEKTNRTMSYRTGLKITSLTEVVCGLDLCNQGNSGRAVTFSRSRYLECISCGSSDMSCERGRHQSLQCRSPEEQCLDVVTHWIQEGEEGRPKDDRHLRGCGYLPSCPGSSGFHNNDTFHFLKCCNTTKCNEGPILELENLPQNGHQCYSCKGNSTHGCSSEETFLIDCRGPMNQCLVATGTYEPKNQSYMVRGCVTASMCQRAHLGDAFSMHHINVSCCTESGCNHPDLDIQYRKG
UniProt Q03405: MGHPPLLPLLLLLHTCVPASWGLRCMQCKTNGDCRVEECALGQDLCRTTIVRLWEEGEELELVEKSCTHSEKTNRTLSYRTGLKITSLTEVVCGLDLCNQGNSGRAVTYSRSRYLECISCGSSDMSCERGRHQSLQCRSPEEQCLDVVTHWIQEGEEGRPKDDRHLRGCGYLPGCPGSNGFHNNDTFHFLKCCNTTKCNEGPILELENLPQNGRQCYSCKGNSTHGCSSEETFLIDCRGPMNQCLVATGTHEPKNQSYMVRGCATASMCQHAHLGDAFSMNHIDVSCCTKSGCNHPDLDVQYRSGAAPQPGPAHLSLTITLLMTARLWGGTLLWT
human urokinase-type plasminogen activator receptor (uPAR, CD87), cell-bound: residues 23-305 of Q03405
human uPAR expressed in HEK293T cells for Western blotting (FIG. 6, lane 5): residues 23-303 of Q03405

Legend:
[1] = target: cynomolgus monkey uPAR, cell-bound (cynomolgus monkey) (UniProt Q9GK78); assay: FACS, GeoMean; cynomolgus uPAR expressed on 293T cells; antibody concentration not given
[2] = target: cynomolgus monkey uPAR, cell-bound (cynomolgus monkey) (UniProt Q9GK78); assay: FACS, CHOK1 cells expressing cyno uPAR, supernatant 1:2
[3] = target: human urokinase-type plasminogen activator receptor (uPAR, CD87), cell-bound (human) (UniProt Q03405); assay: primary and secondary screening, FACS on cells expressing human uPAR, hybridoma supernatants
[4] = target: cynomolgus monkey uPAR, cell-bound (cynomolgus monkey) (UniProt Q9GK78); assay: summary column Cyno X-reactivity
[5] = target: human uPAR expressed in HEK293T cells for Western blotting (FIG. 6, lane 5) (human) (UniProt Q03405); assay: Western blot of HEK293T culture supernatants with His-tagged uPAR proteins, probed with the antibody

| Binder | binding [1] | binding [2] | binding [3] | binding [4] | binding [5] |
| --- | --- | --- | --- | --- | --- |
| anti-uPAR monoclonal antibody 3.8.3 (antibody, V domains shown) VH: EVQLVESGGGLVQPGGSLRLSCAASGFTFSSYWMSWVRQAPGKGLEWVANIKQHGSEKYYVDSVKGRFTISRDNAKNSLYLQMNSLRAEDTAVYYCAREEAYYYDNSGYYWYFDLWARGTLVTVSS VL: DIQMTQSPSSVSASIGDRVTITCRASQGISSWLAWYQQKPGKTPKLLIYAASSLQSGVPSRFSGSGSGTDFTLTISSLQPEDFATYYCQQADSFPWTFGQGTKVEIK | binds | binds | binds | binds |  |
| fully human monoclonal antibody 2.6.1 (ATCC Accession Number PTA-7475) (antibody, V domains shown) VH: EVQLVESGGGLIQPGGSLRLSCAASGFTVITNYMNWVRQAPGKGLEWVSIIYTGGSTSYADSVKGRFTVSRDNSKNTLYLHMNSLRVEDTAVYYCAREIAVAGYYGMDVWGQGTTVTVS VL: DIQMTQSPSSLSASVGDRVTITCRASQGIRNDLGWYQQKPGKAPKRLIYAASSLQSGVPSRFSGSGSGTEFTLTISSLQPEDFATYYCLQHNSYPLTFGGGTRVEIK |  |  |  |  | binds |
| fully human monoclonal antibody 4.18.1 (ATCC Accession Number PTA-7476) (antibody, V domains shown) VH: EVQLVESGGGLIQPGGSLRLSCAASGFTVRNNYMNWVRQAPGKGLEWVSVIYTGGSTYYADSVKGRFTISRDNSRNTLYLQMNSLRAEDTAVYYCAREGAVAGFDYWGQGTLVTVSL VL: EIVMTQFPATLSMSPGERATLSCRASQSVSSSLAWYQQTPGQAPRLLIYGASTRSTGFPARFSGIGSGTEFTLTISSLQSEDFAVYYCQQYGNWPLTFGQGTRLEIK |  |  |  |  | binds |
